# Measurements from the supplement of paper PMC3334620.
# In all, about 33,000 sequences were measured (“E-score (-0.5 to 0.5)”: median about -0.0034, highest 2% from about 0.25 on). Some of the results follow.
# Target: T1, Yap3 (UniProt P38749)
# T1 sequence: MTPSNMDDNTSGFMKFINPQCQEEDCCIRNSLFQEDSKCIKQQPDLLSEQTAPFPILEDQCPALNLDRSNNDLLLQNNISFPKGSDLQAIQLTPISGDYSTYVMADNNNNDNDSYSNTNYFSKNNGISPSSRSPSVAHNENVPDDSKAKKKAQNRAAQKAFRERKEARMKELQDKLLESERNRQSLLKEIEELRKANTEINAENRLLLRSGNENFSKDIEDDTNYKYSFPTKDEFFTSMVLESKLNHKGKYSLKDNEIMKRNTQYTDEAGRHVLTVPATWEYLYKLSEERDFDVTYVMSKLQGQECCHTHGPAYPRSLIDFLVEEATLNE
# Assay: PBM E-score (8-mer binding enrichment) (E-score (-0.5 to 0.5)); higher = stronger / more preferred TF binding
# Settings: protein concentration: 100 nM; construct: GST-full length
# Experimental: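 Universal 'all 10-mer' protein binding microarrays (Agilent AMADID 015681) probed with GST-tagged S. cerevisiae TFs (full-length or DBD) made by in vitro transcription/translation (PURExpress), about 100-200 nM. Bound TF was detected with fluorescent anti-GST. Each ungapped 8-mer (which stands for itself and its reverse complement) is scored by the PBM enrichment score (E-score), a modified Wilcoxon-Mann-Whitney statistic from -0.5 to +0.5, computed with the Universal PBM Analysis Suite. Scale: above 0.35 generally sequence-specific binding.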
row,Sequence,PBM E-score
1,CTATCTTA,0.126
2,GCTAAATA,0.1
3,CTCAACAG,0.0192
4,CAGCGGAA,0.0813
5,CAATATCA,0.167
6,GTCAGAAC,-0.113
7,AGGTTACT,0.0819
8,AATCACAC,0.103
9,GAAGACGC,-0.0463
10,CACCCCGG,-0.397
11,GACGATTA,0.0765
12,CCGACCCG,-0.0299
13,GGAGTTAC,0.0686
14,AAATCATC,0.107
15,CCTGTAAC,-0.0578
16,GCCATAGC,-0.118
17,AGACTCTG,-0.108
18,AAAAATGT,0.106
19,ACTATAAT,0.186
20,CACTATGA,0.0176
21,CCCAACAC,-0.087
22,ACGTTGCG,0.0792
23,CCACAAAA,0.112
24,AGGAAATC,0.127
25,CTGCGACC,-0.191

# Single entries from the entries so far.
# PBM E-score, AGGTTACT is entered as 0.0819
# PBM E-score, ACTATAAT is entered as 0.186
# PBM E-score, CTATCTTA is entered as 0.126
# PBM E-score, AAAAATGT is entered as 0.106
# PBM E-score, AGACTCTG is entered as -0.108
# PBM E-score, GCTAAATA is entered as 0.1
# PBM E-score, CTGCGACC is entered as -0.191

# Next part:

row,Sequence,PBM E-score
1,AACGCCGA,0.0374
2,GACGGAAC,0.00075
3,TTATCCAA,0.17
4,AGGTCTGA,-0.0137
5,AGCAGTGG,-0.0962
6,ACTCGAGG,-0.00572
7,AGAAAAAT,0.141
8,CCTTGCCG,-0.102
9,GACAGCGC,-0.0413
10,AGCGGAAC,-0.0776
11,ATAGCGGA,-0.065
12,GGACAATA,0.177
13,CTAGCTTA,0.166
14,CACGTGCC,-0.0149
15,AGTTAGAG,-0.0388
16,CTGTTTCC,-0.043
17,CCAAGCAA,0.0643
18,AGAACAAG,0.205
19,AATGATCC,-0.068
20,AAGAGGCA,-0.173
21,AAGTAGCT,-0.076
22,GTTGTATA,0.244
23,ACGTGTGC,-0.113
24,AAAGTCGG,-0.031
25,GTTAGTGA,0.0844

row,Sequence,PBM E-score
1,AGAATTGA,0.0737
2,GCCTTAAA,0.0802
3,ACATGTGG,0.202
4,AAGTTGGA,0.0831
5,CGGAAGAC,-0.00677
6,CTTTAGCA,-0.0363
7,ACCCATGG,-0.219
8,CGATATTA,0.358
9,GCAGAAAA,0.162
10,CCATGAGG,-0.0244
11,CGGTTTAA,0.0585
12,CGTTAGGA,0.108
13,CATCAGAC,-0.133
14,CACTATTA,0.0335
15,ACGCCCAT,0.0125
16,TCATACGA,0.0882
17,CTTTCATC,0.0299
18,GAGCTGAC,0.0104
19,CGCGGCCC,-0.0882
20,GTGGTAAA,-0.0974
21,GATTCTGC,0.00403
22,ACCCTTCC,-0.155
23,CAGATTCA,-0.0752
24,ATTGAAAA,0.266
25,GCTAATTA,0.279

row,Sequence,PBM E-score
1,ATCCCGAT,0.14
2,ATCAAACG,-0.00902
3,GCGATCGA,0.21
4,ACTTCGGC,-0.0242
5,GTAGAGAA,0.0971
6,AGCTCCCA,-0.177
7,ATTACTGC,0.254
8,CACGGTCC,-0.314
9,CCACTTCA,-0.0512
10,ACCGTGCA,0.0374
11,AAAAACTC,0.072
12,CCAGAATA,0.246
13,AACATCTA,-0.0506
14,CCAACTAA,0.0685
15,CTTATACC,0.162
16,AGTCTAAA,0.0798
17,CCAGAAAC,0.0139
18,ACCAACTC,-0.0673
19,ACGCCAGT,-0.155
20,GTTTCGTA,0.0847
21,GGGGCCCC,-0.149
22,CTTCCGAC,-0.131
23,ATTATAAT,0.319
24,CTTGTGGC,-0.132
25,ACAATCAG,0.105

row,Sequence,PBM E-score
1,CACGGCAC,-0.095
2,GGGTCTTA,-0.141
3,GTACGTTA,0.256
4,ACCTCCGT,-0.0159
5,CACTTAAC,-0.00843
6,CAGTAGGC,-0.0809
7,AACCCAAG,0.0426
8,CGGGGCGA,-0.00531
9,AGTACGAT,0.155
10,ATCAACTC,0.0249
11,CTCGAGAC,0.124
12,GTTATATA,0.224
13,CCGCGCGA,0.0991
14,TGTACGAA,0.111
15,AAGTTGCA,0.0331
16,GAAGCAAA,0.0129
17,AAGCGGCA,0.0177
18,ATCCACAA,0.0715
19,GCAGGAGC,-0.214
20,CACGTCGC,-0.13
21,ATTCCTTC,0.161
22,GAGATATA,0.0765
23,CGTTGTGC,-0.0529
24,AAGGCGAC,-0.2
25,CTATCGGC,-0.0454

row,Sequence,PBM E-score
1,CAGCTGAC,-0.0663
2,CACACTCG,0.165
3,ACGGCAGT,-0.171
4,AAGCCTCG,-0.0424
5,GATCAGAC,-0.0877
6,ATTATTGC,0.228
7,CCGCCCGC,-0.162
8,CCTTGTAA,0.175
9,ACACTAAT,0.111
10,CGGCTGTC,-0.119
11,CCCCTGTA,-0.119
12,CAATCAAA,0.0584
13,AACAATCC,0.219
14,AGACTCTA,-0.078
15,CCCGGCTC,-0.389
16,CCTTCGAA,-0.0177
17,CGAGCGTC,-0.152
18,TAGATTAA,0.218
19,GGAAACAA,0.0492
20,ACGAATAC,0.192
21,AGTTGTGA,0.108
22,AATACGGC,0.0962
23,ACACCATG,-0.00611
24,CCAAACAA,0.11
25,AGAGGGAG,-0.102

row,Sequence,PBM E-score
1,AAAATCTT,-0.021
2,GCTCACTA,-0.0567
3,AATTACCT,0.0569
4,GGGCATTA,-0.117
5,CTTAGCTC,-0.115
6,CCTTCCAC,-0.0948
7,ACAGTGAG,0.0532
8,ACCGGCAC,-0.149
9,CTTAGACC,-0.0224
10,GGCCGTTA,0.00631
11,GGGGGGCA,-0.365
12,GTCGTTTA,-0.0446
13,AGATGATG,0.0822
14,ACCCCAGT,-0.023
15,CAGGAAGG,-0.253
16,CTTCCATA,-0.165
17,CAGGTAGA,0.00328
18,TCGGTAGA,0.115
19,CAGTCTAA,0.146
20,TGACCCCA,-0.14
21,ACGGGCTG,-0.17
22,AGTTAACG,0.126
